Source: patent publication US12565467B2, “Compounds, compositions, and methods for the treatment of inflammatory, degenerative, and neurodegenerative diseases” (Board of Supervisors of Louisiana State University and …, priority 2015, dated 2026)
At least one compound was matched to its structure with a doubt left.

Test system: human retinal pigment epithelial (RPE) cells deficient in 15-LOX-D1
Assay: Oxidative stress (OS) induced apoptosis / cell death in 15-LOX-1-deficient human RPE cells
Type: cell-based
Conditions: 15-LOX-D1 cells under oxidative stress
Excerpt: FIG. 4. (A) Cytoprotective effects of NPD1 like compounds on OS induced apoptosis. The results shown in this figure compare the cytoprotective capacities of long chain polyunsaturated fatty acids (VLC-PUFA), elovanoids ELV1 and ELV2, and neuroprotectin D1 (NPD1) in human retinal pigment epithelial (RPE) cells deficient in 15-LOX-D1 by measuring the protection of cell deaths induced by oxidative stress (OS) by these compounds. […] (B) Elovanoid precursors protect human retinal pigment epithelial cells deficient in 15-LOX-1, unlike DHA, from oxidative stress conditions.
FIG. 5. (A) Effect of PD146176 on VLC-PUFA-inhibited apoptosis induced by OS in ARPE-19 cells. […] It is evident that 32:6 and 34:6 LCAF were able to induce a substantial amount (55 and 48% respectively) of neuroprotection compared to PD 146176 (22%) when the stressed cells were treated with 5 μm of 15-LOX-D1 inhibitor. It can be concluded that since PD146176 is the inhibitor of 15-lipooxygenase enzyme, it might be protecting the stressed RPE cells by accumulating neuroprotective agents inside the cells. (B) Comparison of cytoprotective capacities of NPD1, C32:6 and C34:6 VLC-PUFA on oxidative stress-induced apoptosis in 15-LOX-1 cells. Shown here is the comparison of neuroprotection in a 15-LOX-1-deficient cell line under oxidative stress with 32:6 and 34:6 VLC-PUFA along with NPD1. […]

SMILES: CC/C=C\C/C=C\C/C=C\C/C=C\C/C=C\C/C=C\CCC(=O)O [DHA, docosahexaenoic acid, reference compound]
- protection against cell death under oxidative stress conditions (FIG. 4B): unable to do so
